{"source": "PubChem BioAssay AID1159584 | Peter MacCallum Cancer Centre, 2016", "screen": "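Genes that CDH1-null MCF10A cells selectively depend on to survive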 (primary screen)", "system": "human MCF10A breast epithelial cells, parental and CDH1-null", "knock-down reagent": "siRNA against human genes", "measurement": "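ATP luminescence (CellTiter-Glo) viability per line relative to mean mock wells over all plates, and the ratio of CDH1-null to parental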", "scale": "CDH1-null / parental viability ratio: higher = CDH1-null cells survive relatively better than parental; CDH1-null viability vs mock: higher = more viable CDH1-null cells", "note": "The deposit covers about 18,000 reagents; below is a random part of them. Further read-outs or replicates are left out here. The record does not give: the amount of reagent, the time to read-out."}
The first 2 entries as a preview:
{"gene symbol": "IQCJ", "CDH1-null / parental viability ratio": 0.88, "CDH1-null viability vs mock (fraction of mock)": 0.59}
{"gene symbol": "MTMR10", "CDH1-null / parental viability ratio": 1.08, "CDH1-null viability vs mock (fraction of mock)": 0.93}

The list itself, from the start:
{"gene symbol": "IQCJ", "CDH1-null / parental viability ratio": 0.88, "CDH1-null viability vs mock (fraction of mock)": 0.59}
{"gene symbol": "MTMR10", "CDH1-null / parental viability ratio": 1.08, "CDH1-null viability vs mock (fraction of mock)": 0.93}
{"gene symbol": "TPM3", "CDH1-null / parental viability ratio": 0.93, "CDH1-null viability vs mock (fraction of mock)": 1.18}
{"gene symbol": "LTBP2", "CDH1-null / parental viability ratio": 1.23, "CDH1-null viability vs mock (fraction of mock)": 0.48}
{"gene symbol": "ZNF57", "CDH1-null / parental viability ratio": 0.95, "CDH1-null viability vs mock (fraction of mock)": 0.7}
{"gene symbol": "OR4S2", "CDH1-null / parental viability ratio": 1.2, "CDH1-null viability vs mock (fraction of mock)": 0.77}
{"gene symbol": "ZNF626", "CDH1-null / parental viability ratio": 1.28, "CDH1-null viability vs mock (fraction of mock)": 1.25}
{"gene symbol": "MRPL55", "CDH1-null / parental viability ratio": 1.35, "CDH1-null viability vs mock (fraction of mock)": 1.04}
{"gene symbol": "DDIAS", "CDH1-null / parental viability ratio": 1.02, "CDH1-null viability vs mock (fraction of mock)": 0.66}
{"gene symbol": "SPATA46", "CDH1-null / parental viability ratio": 1.17, "CDH1-null viability vs mock (fraction of mock)": 1.21}
{"gene symbol": "SREK1IP1", "CDH1-null / parental viability ratio": 0.83, "CDH1-null viability vs mock (fraction of mock)": 0.43}
{"gene symbol": "MRPL47", "CDH1-null / parental viability ratio": 1.17, "CDH1-null viability vs mock (fraction of mock)": 0.54}
{"gene symbol": "GCLM", "CDH1-null / parental viability ratio": 1.1, "CDH1-null viability vs mock (fraction of mock)": 1.01}
{"gene symbol": "FAM3D", "CDH1-null / parental viability ratio": 1, "CDH1-null viability vs mock (fraction of mock)": 0.85}
{"gene symbol": "E2F2", "CDH1-null / parental viability ratio": 0.95, "CDH1-null viability vs mock (fraction of mock)": 0.92}
{"gene symbol": "THAP9", "CDH1-null / parental viability ratio": 1.02, "CDH1-null viability vs mock (fraction of mock)": 0.86}
{"gene symbol": "PGC", "CDH1-null / parental viability ratio": 1.14, "CDH1-null viability vs mock (fraction of mock)": 0.73}
{"gene symbol": "EQTN", "CDH1-null / parental viability ratio": 0.91, "CDH1-null viability vs mock (fraction of mock)": 0.58}
{"gene symbol": "ADAD2", "CDH1-null / parental viability ratio": 0.97, "CDH1-null viability vs mock (fraction of mock)": 1.01}
{"gene symbol": "ARHGEF19", "CDH1-null / parental viability ratio": 1.13, "CDH1-null viability vs mock (fraction of mock)": 1.02}
{"gene symbol": "FNIP1", "CDH1-null / parental viability ratio": 1.07, "CDH1-null viability vs mock (fraction of mock)": 0.98}
{"gene symbol": "GAS1", "CDH1-null / parental viability ratio": 1, "CDH1-null viability vs mock (fraction of mock)": 0.74}
{"gene symbol": "INSL3", "CDH1-null / parental viability ratio": 0.99, "CDH1-null viability vs mock (fraction of mock)": 0.89}
{"gene symbol": "RNASE4", "CDH1-null / parental viability ratio": 1.07, "CDH1-null viability vs mock (fraction of mock)": 0.92}
